The values below come from PMC10437088.

The chains behind the UniProt entries cited, without tags or fusion partners. Where a name states a change or a piece, a line headed by the entry shows the natural chain unless it says otherwise.
UniProt Q6NZQ0: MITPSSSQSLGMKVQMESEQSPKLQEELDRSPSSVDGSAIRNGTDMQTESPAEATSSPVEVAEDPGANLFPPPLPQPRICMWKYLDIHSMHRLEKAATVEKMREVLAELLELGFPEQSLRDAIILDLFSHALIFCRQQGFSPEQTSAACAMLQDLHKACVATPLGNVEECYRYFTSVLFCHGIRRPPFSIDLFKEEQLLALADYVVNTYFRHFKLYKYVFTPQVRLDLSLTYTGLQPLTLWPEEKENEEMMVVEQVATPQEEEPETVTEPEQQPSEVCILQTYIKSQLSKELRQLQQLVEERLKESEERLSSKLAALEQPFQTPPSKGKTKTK

Results are given in words; binding and its absence hold for the method and conditions named. In cells and extracts the contact can be indirect. For part of these data: Binding can be weak; no strength is given. Where a sequence is shown, tags or fusion partners need not be part of it.

The target of assay [1] is T1, FLAG-tagged Cabcoco1 overexpressed in HEK293 cells (mouse) (UniProt Q8CDT7).
T1 sequence: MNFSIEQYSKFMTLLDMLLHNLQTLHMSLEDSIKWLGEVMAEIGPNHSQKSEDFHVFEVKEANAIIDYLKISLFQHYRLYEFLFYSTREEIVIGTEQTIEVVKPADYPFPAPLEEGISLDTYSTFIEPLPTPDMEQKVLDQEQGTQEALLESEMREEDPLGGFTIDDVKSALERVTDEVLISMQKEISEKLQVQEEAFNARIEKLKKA
The assay can be described thus: co-IP; proteins (FLAG-tagged Cabcoco1, EGFP-tagged Ccdc189 or truncated CCDC189 fragments) overexpressed in HEK293 cells.

Assay [2] deals with CCDC189-EGFP (EGFP-tagged Ccdc189 knock-in allele), in mouse testes (mouse) (UniProt Q6NZQ0). The assay can be described thus: co-IP; anti-GFP antibody, testes of Ccdc189-EGFP mice, detection by blot.

In the case of “Ccdc189D3 (with the coiled-coil domain deleted) (mouse) (domain or fragment)”, the binding entry in assay [1] is “no binding”.

B1: IFT88 protein in the testes of Ccdc189-EGFP mice (protein, UniProt Q61371 1-824)
chain: MENVHLAPETDEDDLYSGFNDYNPAYDTEELENDTGFQQAVRTSHGRRPPVTAKIPSTAVSRPIATGYGSKTSLTSSMGRPMTGTIQDGVARPMTAVRAAGFSKAALRGSAFDPLGQSRGPAPPLEAKNEDSPEEKIRQLEKKVNELVEESCIANSCGDLKLALEKAKDAGRKERVLVRQREQVTSPENINLDLTYSVLFNLASQYSANEMYAEALNTYQVIVKNKMFSNAGRLKVNMGNIYLKQRNYSKAIKFYRMALDQIPSVHKEMRIKIMQNIGITFIKTGQYSDAINSFEHIMSMAPSLKAGFNLILSCFAIGDREKMKKAFQKLIAVPLEIDEDDKYISPSDDPHTNLLIEAIKNDHLRQMERERKAMAEKYIMTAAKLIAPVIEASFAVGYNWCVEVVKASQYVELANDLEINKAITYLRQKDFNQAVDTLKMFEKKDSRVKSAAATNLSFLYYLENEFAQASSYADLAVNSDRYNPSALTNKGNTVFANGDYEKAAEFYKEALRNDSSCTEALYNIGLTYKKLNRLDEALDSFLKLHAILRNSAQVLCQIANIYELMEDPNQAIEWLMQLISVVPTDSQALSKLGELYDSEGDKSQAFQYYYESYRYFPSNIEVIEWLGAYYIDTQFCEKAIQYFERASLIQPTQVKWQLMVASCFRRSGNYQKALDTYKEIHRKFPENVECLRFLVRLCTDIGLKEVQEYATKLKRLEKMKEMREQRIKSGRDSSGGSRSKREGSAGSDSGQNNSASSKSERLSAKLRALPGTDEPYESSGNKEIDASYVDPLGPQIERPKTAAKKRIDEDDFADEELGDDLLPE
With B1, in assay [2], the binding result is recorded as “binds”.

B2: CABCOCO1 protein in the testes of Ccdc189-EGFP mice (protein, UniProt Q8CDT7 1-208)
chain: MNFSIEQYSKFMTLLDMLLHNLQTLHMSLEDSIKWLGEVMAEIGPNHSQKSEDFHVFEVKEANAIIDYLKISLFQHYRLYEFLFYSTREEIVIGTEQTIEVVKPADYPFPAPLEEGISLDTYSTFIEPLPTPDMEQKVLDQEQGTQEALLESEMREEDPLGGFTIDDVKSALERVTDEVLISMQKEISEKLQVQEEAFNARIEKLKKA
As for B2, the binding result in assay [2] is on record as “binds”.
